Literature values, collected in patent EP4729053A1, “SOLID DISPERSION OF P2X4 INHIBITOR, AND PREPARATION METHOD THEREFOR AND USE THEREOF” (Wuhan Createrna Science and Technology Co.,Ltd., priority 2023, dated 2024).
Some of these results come from one statement about several compounds together.

Target: T1, P2X4 (Homo sapiens, UniProt Q99571)
T1 sequence (Q99571 1-388): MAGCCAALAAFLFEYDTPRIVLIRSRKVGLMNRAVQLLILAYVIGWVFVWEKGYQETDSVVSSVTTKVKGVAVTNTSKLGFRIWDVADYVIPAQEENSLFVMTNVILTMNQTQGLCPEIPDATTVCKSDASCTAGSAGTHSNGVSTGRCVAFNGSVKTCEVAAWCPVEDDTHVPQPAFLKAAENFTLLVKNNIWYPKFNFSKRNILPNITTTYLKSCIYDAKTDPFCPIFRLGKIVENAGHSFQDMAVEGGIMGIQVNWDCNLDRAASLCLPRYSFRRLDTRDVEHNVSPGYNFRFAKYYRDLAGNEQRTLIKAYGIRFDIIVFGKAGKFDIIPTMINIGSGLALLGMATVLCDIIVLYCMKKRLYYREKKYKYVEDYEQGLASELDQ
Conditions: as disclosed in WO2021104486A1; cited from earlier work

NS(=O)(=O)c1cc(NC(=O)Cc2ccccc2Cl)cc2nn(C(F)F)cc12 [compound 1]
inhibitory activity against P2X4: high inhibitory activity against P2X4
